Laboratory results published in PubChem BioAssay AID504594 (Broad Institute, 2011).
Fewer than 10 of roughly 2,000 compounds were called active.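 How the source made its calls: active means growth inhibition of at least 75% in every replicate, which also brings the mean inhibition to 75% or more; inconclusive means mean inhibition 75% or more but some replicate under 75%; inactive means the rest.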 The list shows a part of the results.

Test: growth inhibition of PfHsp90-dependent yeast, primary screen, antimalarial PfHsp90 inhibitor project, S. cerevisiae, BacTiter-Glo luminescence (AID 504594);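 further: 0% = DMSO neutral control wells and 100% = 20 µM radicicol control wells; higher value means stronger growth inhibition because the sign is flipped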
Conditions: S. cerevisiae expressing PfHsp90, BacTiter-Glo growth, 48 h; at 9.4 µM; active compounds read high

Growth inhibition, inactive:
CCCCC[C@H](O)/C=C/C1=C(CCCCCCC(=O)O)C(=O)CC1 -8.84%
COc1cccc(-n2c(C)c3c(OC)cccc(=O)c3c2C)c1 -7.68%
Cc1csc(-c2coc3cc(O)cc(C)c3c2=O)n1 23.5%
COc1ccc(NC(=O)C2C(=O)N(CCO)C3(C)CC2c2ccccc2O3)cc1 (stereo not drawn) -3.64%
Cc1ccc(S(=O)(=O)n2ccnc2)cc1C 0.676%
CC(C)CC(NC(=O)C1CCCN1C(=O)OC(C)(C)C)C(=O)NCC(N)=O (stereo not drawn) -3.62%
Cc1ncc(C(=O)O)c(C(=O)O)c1N 4.62%
CN1CCN(CCCN2c3ccccc3Sc3ccc(C(F)(F)F)cc32)CC1 0.19%
CNC[C@H](O)c1ccc(O)c(O)c1 4.99%
C[N+]1(C2CCC3CCCC2C3O)CCCCC1 (stereo not drawn) -8.1%
CC(C)[N+]1(C)[C@@H]2CC[C@H]1CC(OC(=O)C(CO)c1ccccc1)C2 (stereo partly drawn) -14.8%
COC(=O)c1cc(OC)c(OC)cc1NC(=O)CN1C(=O)c2ccccc2C1=O -14.3%
Cc1ccc(S(=O)(=O)NC(C(=O)Oc2ccc3c(C(F)(F)F)cc(=O)oc3c2)c2ccccc2)cc1 (stereo not drawn) -9.05%
CN(C(=O)C(Cl)Cl)c1ccc(OC(=O)c2ccco2)cc1 -1.22%
Cc1oc2c(CN3CCCC3)c(O)ccc2c(=O)c1-c1ccc(Cl)cc1 0.627%
CN(C)CCOC(C)(c1ccccc1)c1ccccn1 (stereo not drawn) 9.37%
COc1ccccc1C(=O)Oc1ccc2c(c1)O/C(=C\c1ccncc1)C2=O 11.4%
C(=C\c1ccccc1)/CN1CCN(C(c2ccccc2)c2ccccc2)CC1 1.92%
O=C(C1CCCCC1)N1CC(=O)N2CCc3ccccc3C2C1 (stereo not drawn) 6.89%
CCOC(=O)C1C(=O)OC2(CCOC(C)(C)C2)C1C(=O)OCC (stereo not drawn) -2.41%
Cc1ccc(OCCCCn2ccnc2C)c(C)c1 -3.77%
C=CCc1cc(Cl)ccc1OCCOCCN(C)C 0.654%
CC(=O)NC1C(OCCOc2ccc(Cl)cc2Cl)OC(COC(C)=O)C(OC(C)=O)C1OC(C)=O (stereo not drawn) 25.1%
Cn1c(=O)c2c(ncn2Cc2ccccc2)n(C)c1=O 14%
CCOC(=O)C(NC(=O)CCC(=O)Nc1ccc(S(N)(=O)=O)cc1)C(O)c1ccccc1 (stereo not drawn) -0.0283%
O=c1c(-c2ccc3c(c2)OCCO3)coc2cc(OC3OC(CO)C(O)C(O)C3O)ccc12 (stereo not drawn) -22.6%
Cc1cccc(N2CCN(C(=S)c3ccccc3)CC2)c1 26.4%
O=c1ccc2c(o1)/C(=C/C=C(Cl)Cl)CCC2 -2.29%
CC(C)CN1CCN(Cc2ccc(C#CC(C)(C)O)cc2)CC1CCO (stereo not drawn) 15.6%
Nc1nc2ccc(OC(F)(F)F)cc2s1 0.568%
COc1ccc2c(c1)c(CC(=O)O)c(C)n2C(=O)c1ccc(Cl)cc1 2.55%
O[C@H]1COC2C1OC[C@@H]2O (stereo partly drawn) -2.02%
CCc1cccc2c1NC1(CCCC1)CC2C (stereo not drawn) 0.87%
O=C(COc1ccc2ccc(=O)oc2c1)c1ccccc1 -9.66%
COc1ccc(OCc2cccc(C(=O)NN)c2)cc1 -0.848%
C/C(=N\NC(=O)c1ccccc1[N+](=O)[O-])c1ccc(Br)s1 2.92%
NC(N)=NC(N)=NCCc1ccccc1 -6.18%
CC(NC(=O)c1cccnc1)C(=O)O (stereo not drawn) -10.5%
CC(C)OC(=O)CC1C(=O)NCCN1C(=S)NC(=O)c1cccs1 (stereo not drawn) 7.79%
CC(C)c1ccc2[nH]c3c(c2c1)CCCC3=O 0.593%
COC(=O)c1cc(Br)c(=O)n(CCc2ccc(O)cc2)c1 12.1%
Cc1ccc2c(c1)C(CCN)C(=O)N2Cc1ccccc1 (stereo not drawn) -2.1%
CCOC(=O)C1NN=C(C(=O)c2ccccc2)C1c1ccc(Cl)cc1 (stereo not drawn) 3.31%
Cc1cccc2c1CC(C)(C)N/C2=C\C(N)=O 1.18%
CC(C[N+](C)(C)C)OC(N)=O (stereo not drawn) 1.14%
CN(C)CCN(Cc1ccc(Cl)cc1)c1ccccn1 4.52%
O=C(c1cccc2ccccc12)C1CCCN(C(=O)CCN2CCCO2)C1 (stereo not drawn) 0.553%
Cc1onc(-c2c(Cl)cccc2Cl)c1C(=O)NC1C(=O)N2C1SC(C)(C)C2C(=O)O (stereo not drawn) -6.05%
CN(CCCN1CCOCC1)Cc1cn(C)nc1-c1ccccc1F 7.21%
COC(=O)[C@@H](N)CS -1.65%
Cc1cn([C@H]2C[C@H](N=[N+]=[N-])[C@@H](CO)O2)c(=O)[nH]c1=O -6.73%
O=C(CS(=O)(=O)c1ccccc1)c1ccc2c(c1)OCCO2 -2.75%
COc1ccc([C@@H]2Sc3ccccc3N(CCN(C)C)C(=O)[C@@H]2OC(C)=O)cc1 -1.72%
Cc1ccc(C)c(OCCCC(C)(C)C(=O)O)c1 -1.57%
O=C(CCCN1CCC(O)(c2ccc(Cl)cc2)CC1)c1ccc(F)cc1 2.51%
O=C(NC(=S)Nc1nc(-c2ccccc2)cs1)c1ccco1 2.7%
C=C(C)COc1ccc(-c2n[nH]c(C)c2-c2ccc(OC)cc2)c(O)c1 -16.8%
COCCOC(=O)C1=C(C)NC(C)=C(C(=O)OC(C)C)C1c1cccc([N+](=O)[O-])c1 (stereo not drawn) 4.77%
CN1C(C(=O)Nc2ccccn2)=C(O)c2ccccc2S1(=O)=O 2.41%
COc1ccc2c(c1)C(=O)CC(c1ccccc1F)O2 (stereo not drawn) -2.11%
CC1(C)CC(c2csc(N)n2)CCO1 (stereo not drawn) 3.01%
Cc1ccc2c(ccc(=S)n2C)c1 0.161%
O=C(O)CCCNc1ccc(S(=O)(=O)Nc2ccccc2C(=O)O)cc1C(=O)O -1.88%
CC1(C)[C@@H](O)CC[C@]2(C)[C@H]3C(=O)C=C4[C@@H]5C[C@@](C)(C(=O)O)CC[C@]5(C)CC[C@@]4(C)[C@]3(C)CC[C@@H]12 19.9%
COc1cc(C(=O)NCCc2c[nH]c3ccccc23)ccc1OCc1c(C)noc1C -2.7%
CN(C)CCCNc1ncnc2c1cnn2-c1ccccc1 -5.01%
COc1cc(NC(=O)COc2ccccc2)c(OC)cc1NC(C)=O 5.31%
CN1/C(=C\C=Nc2ccccc2)C(C)(C)c2ccccc21 14%
COc1ccc2cc(C3(C)NC(=O)NC3=O)ccc2c1 (stereo not drawn) 1.64%
Clc1ccc2c(c1)[C@H]1OCC[C@H]1[C@@H](c1ccco1)N2 1.42%
Cc1ccccc1OCCSc1nc2ncnc(N)c2[nH]1 -2.23%
COc1ccc2nc(S(=O)Cc3ncc(C)c(OC)c3C)[nH]c2c1 (stereo not drawn) -8.25%
O=CNC1CCCc2c1[nH]c1ccc(Cl)cc21 (stereo not drawn) -7.59%
CCCC(=O)O[C@]1(C(=O)CO)CC[C@H]2[C@@H]3CCC4=CC(=O)CC[C@]4(C)[C@H]3[C@@H](O)C[C@@]21C -0.235%
O=c1cc(CN2CCN(c3cccc(Cl)c3)CC2)c2cc(O)c(-c3ccccc3)cc2o1 5.17%
COc1ccc2oc(=O)c(-c3nc(C)cs3)cc2c1 -1.87%
COc1cc2c(cc1OC)C1(CCCCC1)CN(C)C2 -3.79%
O=c1[nH]c(=O)n([C@H]2C[C@H](O)[C@@H](CO)O2)cc1C(F)(F)F 13.3%
CC(C)C(=O)Nc1ccc2c3c(cccc13)CC2 -6.87%
Cc1nnc(SCC2=C(C(=O)O)N3C(=O)[C@@H](NC(=O)Cn4cnnn4)[C@H]3SC2)s1 0.906%
CCCCCCCCNC(C)C(O)c1ccc(SC(C)C)cc1 (stereo not drawn) 0.856%
CC(=O)CC(c1ccc([N+](=O)[O-])cc1)c1c(O)c2ccccc2oc1=O (stereo not drawn) -2.05%
c1ccc(SSc2ccccc2)cc1 -0.853%
COc1ccc2[nH]c(C)c(CN3CCC(C)CC3)c(=O)c2c1 -1%
Cc1ccccc1C(=O)NCC(=O)O 2.47%
CC12COC3(C(=O)Nc4ccc(F)cc4)CC1CCC32C (stereo not drawn) -8.1%
COc1ccc2c(c1)C=CC1(O2)N(CCO)c2ccccc2C1(C)C (stereo not drawn) -0.327%
O=Cc1ccc(N2CCCCC2)cc1 -3.18%
C[C@]12CC[C@H]3[C@@H](CCC4=CC(=O)CC[C@@]43C)[C@@H]1CC[C@@H]2C(=O)CO 2.84%
COc1cc(C=NCC2OCCc3ccccc32)cc(OC)c1 (stereo not drawn) -7.45%
COc1cc(NS(=O)(=O)c2ccc(N)cc2)nc(OC)n1 12.1%
O=C(O)c1cc(-c2ccc3c(c2)OCO3)nc2ccc(Br)cc12 0.979%
O=C(c1ccco1)N1CCCN(Cc2nc(-c3ccc4c(c3)OCO4)no2)CC1 4.02%
CC(C)c1ccc(OCc2ccc(C(=O)O)o2)cc1 -8.18%
COc1ccc(C2=CC(=O)C=CC2=O)cc1 4.33%
CCOC(=O)c1ccc(N2C(=O)C(CC(=O)NC)N(CCc3ccc(OC)c(OC)c3)C2=S)cc1 (stereo not drawn) 8.13%
CCOC(=O)c1ccc(NC(=S)NCCc2ccccc2F)cc1 -13%
NC(=O)N1c2ccccc2CC(=O)c2ccccc21 -9.53%

Gathered by group, those above containing bromine (three)
Growth inhibition, inactive:
C/C(=N\NC(=O)c1ccccc1[N+](=O)[O-])c1ccc(Br)s1 2.92%
COC(=O)c1cc(Br)c(=O)n(CCc2ccc(O)cc2)c1 12.1%
O=C(O)c1cc(-c2ccc3c(c2)OCO3)nc2ccc(Br)cc12 0.979%

2 records drawn at random from those above:
Growth inhibition, inactive:
COCCOC(=O)C1=C(C)NC(C)=C(C(=O)OC(C)C)C1c1cccc([N+](=O)[O-])c1 (stereo not drawn) 4.77%
CC(NC(=O)c1cccnc1)C(=O)O (stereo not drawn) -10.5%

2 successive records out of the list so far, quoted:
Growth inhibition, inactive:
O=C(CCCN1CCC(O)(c2ccc(Cl)cc2)CC1)c1ccc(F)cc1 2.51%
O=C(NC(=S)Nc1nc(-c2ccccc2)cs1)c1ccco1 2.7%
